Results from PubChem BioAssay AID504444 (National Center for Advancing Translational Sciences (NCATS), 2011).
Screen size: about 360,000 compounds; about 7,500 (2.1%) were called active. Inconclusive means that the source gave no clear call. Such entries were picked first, then a sample of the others. The call rests on the fitted dose curve; in most records, active means well fitted inhibition curve with a large enough effect; inconclusive means small, poorly fitted or top-dose-only effect, or effect the other way; inactive means flat fitted curve, though single readings scatter. Potencies beside an inconclusive call are fits to weak or partial responses and may not hold up.

Assay: Nrf2 qHTS screen for inhibitors; further: nearly all actives have a fitted effect of over 60% in size
Details: A549 ARE-Fluc reporter, luciferase luminescence, 18-24 h; activity change, negative = inhibition: at 46 µM (top of the series)
Excerpt: NIH Molecular Libraries Probe Production Network [MLPCN]
NIH Chemical Genomics Center [NCGC]
Assay Provider: Shyam Biswal, Johns Hopkins University
Nrf2 is a transcription factor that maintains cellular redox homoestasis and protects cells from xenobiotics. Nrf2 binds to the antioxidant response element (ARE) to induce gene expression of a broad spectrum of genes that encode for antioxidants. […] Finding a small molecule that act as an inhibitor of Nrf2 function would represent a novel therapeutic target that could lead to improvement in survival of patients undergoing chemo- and/or radio- therapy.
This is the Nrf2 activity measured in the luminescent read.
1. Shibata, T., et al., Genetic Alteration of Keap1 Confers Constitutive Nrf2 Activation and Resistance to Chemotherapy in Gallbladder Cancer. Gastroenterology, 2008.
2. Sjoblom, T., et al., The consensus coding sequences of human breast and colorectal cancers. Science, 2006. 314(5797): p. 268-74.
NCGC Assay Protocol Summary:
A concentration-response assay was performed with A549 ARE_Fluc cells which are suspended in 5% FBS OPTI-MEM. Five uL were dispensed into 1536-well white TC-treated plate using the Kalypsys dispenser to achieve a density of 5000 cells/well in all columns except column 1. The plate is incubated at 37deg C at 5% CO2 for 2 hours before 23 nL of compounds are added with the Kalypsys pin tool equipped with a 1,536-pin array containing 10-nL slotted pins (FP1S10, 0.457-mm diameter, 50.8 mm long; V&P Scientific). The control compounds Budesonide and Staurosporine are both added at a concentration of 2mM and Budesonide is also added as a 1:10 titration, starting at 200uM, to achieve dose-response. After an 18-24 hour incubation at 37deg C at 5% CO2, 5ul of medium is added to column 1. Afterwards 1ul of 5x of CellTiter-Fluor (Promega) is added to every well. The plate is then incubated at 37deg C at 5% CO2 for 30 minutes before they are read on the ViewLux (Perkin Elmer) for a fluorescent read Ex=405(10)/Em=525(10) for a 3 second exposure, 2x binning, and high gain. Then 3 uL of 3x BugLite is dispensed into all wells and the plate is incubated at ambient room temperature for 15 minutes. Afterwards another ViewLux read is performed using the clear filter to get a luminescent read with the settings of 40 second exposure, 2x binning, and high gain. Cytotoxicity is assessed through the first fluorescent read and then biochemical activity against Nrf2 is measured in the luminescent read.
On the % scale 0 is the no-effect control and ±100 the full control effect; potency means the concentration at half of the fitted maximal effect.

| SMILES | Potency | activity change, negative = inhibition |
| --- | --- | --- |
| Cc1ccc(C(=O)Nc2ccc(CN3CCCCC3)cc2)c(C)c1 | inconclusive: 9.2 µM [activator, partial curve] |  |
| C=CCNC(=O)c1ccc2c(c1)N(CC)C(=O)c1ccccc1S2 | inconclusive: 23.1 µM [falling, partial curve, poor fit] |  |
| COc1ccc(CNC(=O)COc2cc3c(c4oc(=O)cc(C)c24)CCC(C)(C)O3)cc1 | inconclusive: 29.1 µM [falling, single point] |  |
| CC(Sc1nc2ccccc2s1)C(=O)N(C)Cc1ccccc1 (configuration not stated) | inconclusive: 18.4 µM [falling, single point] |  |
| O=C(Nc1cc(Cl)ccc1O)c1cc(-c2ccco2)on1 |  | inactive: -12.3% |
| Cc1nc2cccnc2n1-c1cccc(C(=O)NCCc2ccc(S(N)(=O)=O)cc2)c1 | inconclusive: 16.4 µM [activator, partial curve, poor fit] |  |
| O=c1c([N+](=O)[O-])cc(C(F)(F)F)cn1Cc1c(Cl)cccc1Cl |  | inactive: -23.5% |
| CN(C)c1nc(N)c(C#N)c(C#N)c1C#N | inconclusive: 0.0291 µM [falling, full curve, poor fit] |  |
| CCN1C(=O)[C@H]2[C@@H](c3ccc(-c4ccc(F)cc4)cc3)N[C@@](CC(C)C)(C(=O)OC)[C@H]2C1=O | inconclusive: 16.4 µM [falling, single point] |  |
| O=C(Nc1nc2c(s1)CN(Cc1ccccc1)CC2)c1c(F)cccc1F | inconclusive: 29.1 µM [activator, single point] |  |
| Cc1ccnc(NC(=O)CCNC(=O)c2ccc(Cl)cc2)c1 | inconclusive: 2.31 µM [activator, full curve] |  |
| COc1cccc(CNC(=O)c2nnn(-c3ccc(OC(F)(F)F)cc3)c2N)c1 | inconclusive: 13 µM [falling, single point] |  |
| CC(C)NC(=O)C1CCN(c2ccc(S(=O)(=O)N3CCOCC3)cc2Cl)CC1 | inconclusive: 13 µM [falling, partial curve, poor fit] |  |
| C[C@@]12C(=O)N(Cc3ccc(F)cc3)CC(=O)N1[C@H]1c3cc(Cl)ccc3OC[C@@H]1[C@@H]2c1ccccc1 | inconclusive: 20.6 µM [falling, single point] |  |
| COC(=O)c1c(NC(=S)NN2CCN(C)CC2)sc2c1CCC(C)C2 (configuration not stated) | inconclusive: 29.1 µM [falling, single point] |  |
| CC1Sc2ccc(S(=O)(=O)N3CCC(C(=O)N(C)Cc4ccccc4)CC3)cc2NC1=O (configuration not stated) | inconclusive: 20.6 µM [falling, single point] |  |
| Cn1c(SCc2c(F)cccc2Cl)nnc1-c1cnccn1 | inconclusive: 11.6 µM [activator, partial curve, poor fit] |  |

Some values from the results shown.
Entry of `Cn1c(SCc2c(F)cccc2Cl)nnc1-c1cnccn1` under Potency: inconclusive: 11.6 µM [activator, partial curve, poor fit]
Entry of `O=c1c([N+](=O)[O-])cc(C(F)(F)F)cn1Cc1c(Cl)cccc1Cl` under activity change, negative = inhibition: inactive: -23.5%
